These results are taken from PubChem BioAssay AID256 (DTP/NCI, 2004).

The test system of the experiment is CD2F1 mice, L1210 leukemia ip, survival T/C. The experiment is described as follows: NCI In Vivo Anticancer Drug Screen. Data for tumor model L1210 Leukemia (intraperitoneal) in CD2F1 (CDF1) mice. Conditions: T/C endpoint: mean survival time, higher T/C = longer survival. Put shortly: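 Each value reflects a quotient of treated over vehicle control outcomes in mice with a transplanted tumor.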

The mark [1] stands for this setting: dose: 400.0 mg/kg/injection, schedule: Q04DX003 (ip), vehicle: saline.
Where [2] appears, read: dose: 400.0 mg/kg/injection, schedule: Q01DX009 (ip), vehicle: saline with Tween-80.
Where [3] appears, read: dose: 400.0 mg/kg/injection, schedule: Q04DX003 (ip), vehicle: saline with Tween-80.
Setting [4] is: dose: 200.0 mg/kg/injection, schedule: Q01DX001 (ip), vehicle: saline with Tween-80.
Setting [5] is: dose: 400.0 mg/kg/injection, schedule: Q01DX001 (ip), vehicle: saline with Tween-80.
Where [6] appears, read: dose: 200.0 mg/kg/injection, schedule: Q01DX009 (ip), vehicle: saline with Tween-80.
The mark [7] stands for this setting: dose: 25.0 mg/kg/injection, schedule: Q04DX003 (ip), vehicle: saline.
Setting [8] is: dose: 50.0 mg/kg/injection, schedule: Q04DX003 (ip), vehicle: saline.
[9] abbreviates: dose: 300.0 mg/kg/injection, schedule: Q01DX001 (ip), vehicle: saline.
[10] abbreviates: dose: 300.0 mg/kg/injection, schedule: Q01DX001 (ip), vehicle: other.
The mark [11] stands for this setting: dose: 400.0 mg/kg/injection, schedule: Q04DX003 (ip), vehicle: Klucel (hydroxypropylcellulose) (HPC).
Setting [12] is: dose: 400.0 mg/kg/injection, schedule: Q01DX001 (ip), vehicle: saline.

The list is a part of this screen's results and no random one: it gathers tests that were run many times, whatever their T/C, doses with no T/C, and many T/C values between a quarter and a half above the control. Further doses and runs are listed elsewhere. T/C: endpoint of the treated group in % of that of the vehicle group. Some doses have a count of surviving animals in place of a T/C: the source holds a T/C of zero for them, seemingly a mark for toxic or unscored doses. Some survivor counts are full or nearly so, which does not show that the dose was tolerated: survival well below the control is almost never listed, so the zero probably covers shortened survival too. Survivors were counted at the toxicity check, usually on the fifth day, unless a day is given; later deaths do not show. Schedule codes are those of the source, read here as Q, the interval in days (D) or hours (H), X, the number of doses. For survival time, the PubChem record calls one and a half times the control and up active, and a quarter to a half above the control has no call in these data; cut-offs in other NCI protocols can differ. Some T/C values are followed by the survivors on the day toxicity was checked, most often the fifth; without a count, all were alive then. Some doses were run more than once; the results are listed from low to high.

For the compound `CCOP(=O)(OCC)C(C#N)Cc1ccccc1OC` (stereo not drawn), under setting [1], the survivor count was 0 of 6.

As for `COc1ccc(CCNC(=O)Cc2ccc3cc(OC)c(OC)cc3c2)cc1OC`, the survivor count under setting [2] is 3 of 6 and the survivor count under setting [3] is on record as 6 of 6.

Take `COc1cc([C@@H]2c3cc4c(cc3C[C@H]3COC(=O)[C@@H]32)OCO4)cc(OC)c1OC`: the survivor count (dose: 50.0 mg/kg/injection, schedule: Q01DX015 (ip), vehicle: saline) is recorded as 0 of 6.

Consider `C1C[S][Sn]2([S]CCO1)[S]CCOCC[S]2`, for which the survivor count was 0 of 3 (dose: 100.0 mg/kg/injection, schedule: Q01DX001 (ip), vehicle: saline with Tween-80); 0 of 3 under setting [4]; 0 of 3 under setting [5].

In the case of `O=C1CN(Cc2ccc3c(c2)OCO3)NO1`, the T/C (dose: 50.0 mg/kg/injection, schedule: Q01DX009 (ip), vehicle: saline with Tween-80) is 133 % of control. Also, under setting [6], the T/C was 129 % of control and the survivor count is listed as 6 of 6.

`CCC[CH2][Sn]1([CH2]CCC)[O]C2C(CO)OC(n3c(Br)c(C#N)c4c(N)ncnc43)C2[O]1` (stereo not drawn): the survivor count reads like this: (dose: 6.25 mg/kg/injection, schedule: Q01DX005 (ip), vehicle: distilled water + Tween-80) 2 of 6; (dose: 12.5 mg/kg/injection, schedule: Q01DX005 (ip), vehicle: distilled water + Tween-80) 1 of 6; (dose: 25.0 mg/kg/injection, schedule: Q01DX005 (ip), vehicle: distilled water + Tween-80) 0 of 6.

`O=C1C=CC(=O)N1CN1CCOCC1`: the survivor count reads like this: (dose: 17.5 mg/kg/injection, schedule: Q01DX009 (ip), vehicle: saline) 6 of 6; under setting [7], 3 of 6; (dose: 35.0 mg/kg/injection, schedule: Q01DX009 (ip), vehicle: saline) 3 of 6; under setting [8], 0 of 6; (dose: 55.0 mg/kg/injection, schedule: Q01DX009 (ip), vehicle: saline) 0 of 6; (dose: 80.0 mg/kg/injection, schedule: Q01DX009 (ip), vehicle: saline) 0 of 6.

`N#[N+]c1c(C(=O)O)[nH]c(=O)[nH]c1=O`: the survivor count (dose: 50.0 mg/kg/injection, schedule: Q04DX003 (ip), vehicle: saline with Tween-80) was 3 of 6.

Turning to `CCOc1cc(NCCCN)c2nc(OCc3ccccc3)ccc2c1`, the survivor count is recorded as 0 of 6 (dose: 150.0 mg/kg/injection, schedule: Q01DX001 (ip), vehicle: saline) and 0 of 6 under setting [9].

For `CCCCCC/C(C)=C(\C)c1cc(OC)cc(OC)c1`, under setting [3], the survivor count is 4 of 6.

`Cc1c2cnccc2c(C)c2c1c1ccccc1n2CCCCCCCl`: under setting [3], the survivor count is 3 of 6.

Regarding `CCOC(=O)Cc1nc2ccccc2[nH]1`, the survivor count under setting [3] was 3 of 3.

In the case of `CC(NC(=O)CCl)C(=O)O` (stereo not drawn), the survivor count under setting [1] was 5 of 6.

As to `CCCC(=O)Nc1ccn(C2OC(CO)C(O)C2O)c(=O)n1` (stereo not drawn), the T/C is 130 % of control (dose: 100.0 mg/kg/injection, schedule: Q04DX002 (ip), vehicle: saline with Tween-80); 130 % of control (dose: 200.0 mg/kg/injection, schedule: Q04DX002 (ip), vehicle: saline with Tween-80); 139 % of control (dose: 400.0 mg/kg/injection, schedule: Q04DX002 (ip), vehicle: saline with Tween-80).

As to `CCCCCCCCN(CCCCCCCC)CC(O)c1ccc2c(c1)Sc1ccccc1O2` (stereo not drawn), the survivor count under setting [9] is 1 of 6.

In the case of `CN1CCC(CCOCc2ccccc2)(CN2c3ccccc3Sc3ccccc32)C1` (stereo not drawn), the survivor count is listed as 3 of 6 (dose: 100.0 mg/kg/injection, schedule: Q04DX003 (ip), vehicle: saline with Tween-80); 1 of 6 (dose: 200.0 mg/kg/injection, schedule: Q04DX003 (ip), vehicle: saline with Tween-80); 0 of 6 under setting [3].

As for `COc1ccc2c(c1O)C1=CC(=O)CCC13CCN(C)C3C2` (stereo not drawn), the survivor count (dose: 400.0 mg/kg/injection, schedule: Q01DX009 (ip), vehicle: saline) was 2 of 6.

Regarding `Clc1cc(N2CC2)nc(N2CC2)n1`, under “dose: 2.7 mg/kg/injection, schedule: Q01DX009 (ip), vehicle: saline”, the T/C is 131 % of control.

For `O=C(O)c1cccnc1.[Cu+2]`, the survivor count is reported as 1 of 6 (dose: 75.0 mg/kg/injection, schedule: Q01DX001 (ip), vehicle: other); 1 of 6 (dose: 150.0 mg/kg/injection, schedule: Q01DX001 (ip), vehicle: other); 0 of 6 under setting [10].

With `Cc1sc2ncnc(Cl)c2c1C`, the survivor count under setting [4] was 3 of 6 and the survivor count under setting [5] is given as 0 of 6.

As to `O=C/C=C/c1ccc([N+](=O)[O-])cc1`, the survivor count under setting [11] was 6 of 6.

With `O=C(O)CC1OCC=C2C[N+]3([O-])CCC45c6ccccc6NC4C1C2CC53` (stereo not drawn), the survivor count under setting [10] was 0 of 6.

For the compound `CCCSc1ccccc1`, the survivor count under setting [12] is recorded as 1 of 6.

As to `O=C1C(Cl)=C(Cl)C(=O)c2ccccc21`, the survivor count reads like this: (dose: 100.0 mg/kg/injection, schedule: Q04DX003 (ip), vehicle: Klucel (hydroxypropylcellulose) (HPC)) 0 of 6; (dose: 200.0 mg/kg/injection, schedule: Q04DX003 (ip), vehicle: Klucel (hydroxypropylcellulose) (HPC)) 0 of 6; under setting [11], 0 of 6.

Take `C(=NCCN1CCOCC1)=NC1CCCCC1`: the survivor count (dose: 25.0 mg/kg/injection, schedule: Q04DX003 (ip), vehicle: saline with Tween-80) is given as 0 of 6.

Turning to `Cn1c(N)c(C2OC(=O)c3ccccc32)c(=O)n(C)c1=O` (stereo not drawn), the survivor count (dose: 400.0 mg/kg/injection, schedule: Q04DX002 (ip), vehicle: Klucel (hydroxypropylcellulose) (HPC)) was 2 of 3.

For the compound `COC1=CC(=O)C=C(OC)C1=O`, the survivor count (dose: 32.0 mg/kg/injection, schedule: Q01DX009 (ip), vehicle: saline) was 2 of 6.

Turning to `O=C1C(N2CCCCC2)=C(N2CC2)C(=O)C(N2CCCCC2)=C1N1CC1`, the T/C was 98, 105 [5 of 6 alive], 106, 130 % of control (dose: 2.5 mg/kg/injection, schedule: Q01DX009 (ip), vehicle: saline); 115, 117, 120, 122 % of control (dose: 5.0 mg/kg/injection, schedule: Q01DX009 (ip), vehicle: saline); 107, 112, 128, 141 % of control (dose: 10.0 mg/kg/injection, schedule: Q01DX009 (ip), vehicle: saline). Moreover, the survivor count (dose: 20.0 mg/kg/injection, schedule: Q01DX009 (ip), vehicle: saline) is reported as 3 of 6.

Consider `CCN(CCNc1ccc(C)c2sc3ccccc3c(=O)c12)CC(C)(C)O`, for which the T/C is, setting by setting: (dose: 200.0 mg/kg/injection, schedule: Q04DX003 (ip), vehicle: saline) 136 % of control; under setting [12], 126 % of control [5 of 6 alive]. Besides, the survivor count by setting is: (dose: 600.0 mg/kg/injection, schedule: Q01DX001 (ip), vehicle: saline) 3 of 6; (dose: 600.0 mg/kg/injection, schedule: Q04DX003 (ip), vehicle: saline) 3 of 6; (dose: 800.0 mg/kg/injection, schedule: Q04DX003 (ip), vehicle: saline) 2 of 6.

As for `C=CC1CCCCC1C=C` (stereo not drawn), the survivor count reads like this: (dose: 100.0 mg/kg/injection, schedule: Q01DX009 (ip), vehicle: saline with Tween-80) 3 of 6; under setting [6], 0 of 6; under setting [2], 2 of 6.

As to `c1ccc2c(c1)C1c3cccc[n+]3C2C2C1CC1C3c4ccccc4C(C12)[n+]1ccccc13` (stereo not drawn), the survivor count is recorded as 6 of 6 under setting [7] and 2 of 6 under setting [8].
